Reference: PubChem BioAssay AID588590 (National Center for Advancing Translational Sciences (NCATS), 2011)
Several values for one entry are separate records, joined by “and”; a condition that tells them apart may be missing. Equal entries are not always repeated. Among all 390,000 compounds or so, about 4,000 (1%) were called active. Inconclusive means that the source gave no clear call. Such entries were picked first, then a sample of the others. The call rests on the fitted dose curve; in most records, active means well fitted inhibition curve with a large enough effect; inconclusive means small, poorly fitted or top-dose-only effect, or another doubt; inactive means no such curve, though single readings can be large or run the other way. Potencies beside an inconclusive call are fits to weak or partial responses and may not hold up.

Amino acid sequences for entries named in this document (tags omitted). A change or cut given only in a name is not applied to a line headed by its entry.
UniProt Q9UNA4: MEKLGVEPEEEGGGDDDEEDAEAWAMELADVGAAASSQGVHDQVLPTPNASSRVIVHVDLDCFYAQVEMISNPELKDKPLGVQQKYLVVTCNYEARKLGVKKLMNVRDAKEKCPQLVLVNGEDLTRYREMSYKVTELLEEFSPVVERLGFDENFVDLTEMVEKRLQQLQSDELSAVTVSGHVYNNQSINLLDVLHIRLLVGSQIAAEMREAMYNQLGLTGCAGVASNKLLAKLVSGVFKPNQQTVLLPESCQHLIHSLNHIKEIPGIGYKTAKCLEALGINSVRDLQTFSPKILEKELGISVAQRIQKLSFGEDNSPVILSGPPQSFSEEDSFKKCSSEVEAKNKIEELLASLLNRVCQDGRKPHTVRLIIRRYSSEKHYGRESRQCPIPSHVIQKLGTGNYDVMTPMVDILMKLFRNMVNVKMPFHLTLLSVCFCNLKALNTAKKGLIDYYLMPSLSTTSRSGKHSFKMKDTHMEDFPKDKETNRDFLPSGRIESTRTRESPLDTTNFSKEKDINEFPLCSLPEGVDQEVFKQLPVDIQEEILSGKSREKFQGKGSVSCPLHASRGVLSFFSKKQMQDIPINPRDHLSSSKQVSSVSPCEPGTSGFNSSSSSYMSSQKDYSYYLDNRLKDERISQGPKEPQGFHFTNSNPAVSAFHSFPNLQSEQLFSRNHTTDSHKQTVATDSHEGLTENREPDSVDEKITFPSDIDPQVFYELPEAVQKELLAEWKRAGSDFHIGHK

These molecules were tested against DNA polymerase iota (Homo sapiens) (UniProt Q9UNA4) (assay: qHTS for Inhibitors of Polymerase Iota). Settings: Pol iota fluorescent replication assay, 10 min; series mostly up to 115 µM.
In short: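 Fluorescent replication assay read twice, at 0 min and 10 min after adding 50 nM (final) substrate. Enzyme (10 nM) and compounds were first incubated 15 min at room temperature; enzyme-free buffer wells were negative controls.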
Potency means the concentration at half of the fitted maximal effect.

Compound | Potency
COc1c(O)ccc2c1-c1c3c(cc4c1C(C2)N(C)CC4)OCO3 (configuration not stated) | inconclusive: 79.4 µM [inhibitor, single point]
CNCC[C@H](Oc1ccc(C(F)(F)F)cc1)c1ccccc1 | inactive and inconclusive: 20 µM [inhibitor, full curve, poor fit]
CCC(CO)(C(=O)OC1CC2CCC(C1)N2C)c1ccccc1 (configuration not stated) | inconclusive: 3.16 µM [inhibitor, full curve, poor fit]
Cc1ccc(S(=O)(=O)Oc2ccccc2C=C2C(=O)N(C)C(=O)N(C)C2=O)cc1 | inactive
Cc1cccc(NC(=O)Cn2cc(C(=O)C3CC3)c3ccccc32)c1C | inconclusive: 56.2 µM [inhibitor, partial curve, poor fit]
CN1C(=O)C(=Cc2cn(CC#N)c3ccccc23)C(=O)N(C)C1=O | inconclusive: 12.6 µM [inhibitor, partial curve]
CCOC(=O)CCCc1cc[c]([Sb](=[O])([OH])[OH])cc1 | active: 1 µM
C=CCNC(=S)Nc1ccc(OC(=O)Nc2ccc(Cl)c(Cl)c2)cc1 | inconclusive: 89.1 µM [inhibitor, single point]
CC(O)(CS(=O)(=O)c1ccccc1)C(=O)Nc1ccc(C(F)(F)F)cc1 (configuration not stated) | inconclusive: 89.1 µM [inhibitor, single point]
COC(=O)C1=C(c2cccc(OCc3ccccc3)c2)C[C@@H]2CC[C@H]1N2C(=O)NCCCOC(C)C | inconclusive: 79.4 µM [inhibitor, single point]
COC(=O)c1cncn1C(C)c1ccccc1 (configuration not stated) | inconclusive: 25.1 µM [inhibitor, single point]
COc1ccc(C2SCC(=O)Nc3c2c(=O)[nH]n3C2CCCCCC2)cc1 (configuration not stated) | inconclusive: 89.1 µM [inhibitor, partial curve, poor fit]
O=C(NCC(c1cccnc1)N1CCOCC1)Oc1ccccc1 (configuration not stated) | inconclusive: 89.1 µM [inhibitor, single point]
O=C(Nc1ccc(Cl)c(Cl)c1)c1ccco1 | inactive
C=CCN1C(=O)NC(=O)/C(=C\c2ccc(-c3ccccc3[N+](=O)[O-])o2)C1=O | inconclusive: 28.2 µM [inhibitor, single point]
O=c1[nH]c(=S)[nH]c(O)c1N=Nc1ccc(SC(F)F)cc1 | inconclusive: 17.8 µM [inhibitor, partial curve, poor fit]
CN1CCc2nc(SC(C(=O)O)c3ccccc3)c(C#N)c(-c3cccs3)c2C1 (configuration not stated) | inconclusive: 22.4 µM [inhibitor, full curve]

Copied from the list.
Cc1ccc(S(=O)(=O)Oc2ccccc2C=C2C(=O)N(C)C(=O)N(C)C2=O)cc1 | Potency: inactive
CNCC[C@H](Oc1ccc(C(F)(F)F)cc1)c1ccccc1 | Potency: inactive and inconclusive: 20 µM [inhibitor, full curve, poor fit]
